Measurements reported in PubChem BioAssay AID1259424 (University of Nebraska Medical Center, 2018)
Aim: 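Seek colon cancer survival genes behaving like KSR1, using a six-gene signature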 (primary screen). System: human HCT116 colon cancer cells. Reagents: siRNA pool against human genes, 50 nM. Measured: 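Six signature mRNAs by branched-DNA multiplex assay, scaled to two housekeeping genes and non-targeting median, log2; matched to mean KSR1 knockdown profile by Pearson correlation and euclidean distance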. Scale: mean correlation with KSR1 profile: higher = expression change more like KSR1 knockdown.
The whole screen tested about 14,000 reagents; shown is a part drawn at random. 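Higher correlation or smaller distance means closer resemblance to KSR1 loss; control wells, including KSR1 knockdowns, recur on many plates.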 Not all columns of the deposit are shown. The record does not give: the time to read-out.

The opening 2 records, ahead of the listing:
DNMT3B: mean correlation with KSR1 profile = -0.466
SPSB2: mean correlation with KSR1 profile = 0.094

Results, from the first entry:
DNMT3B: mean correlation with KSR1 profile = -0.466
SPSB2: mean correlation with KSR1 profile = 0.094
SRP14: mean correlation with KSR1 profile = -0.206
CSTF1: mean correlation with KSR1 profile = -0.0188
GNAT2: mean correlation with KSR1 profile = 0.661
NEK4: mean correlation with KSR1 profile = 0.727
GPX4: mean correlation with KSR1 profile = 0.231
COX4I2: mean correlation with KSR1 profile = 0.0336
SLC22A4: mean correlation with KSR1 profile = 0.546
KIF15: mean correlation with KSR1 profile = -0.162
PITPNB: mean correlation with KSR1 profile = 0.376
RIOX2: mean correlation with KSR1 profile = 0.762
